{
  "sequences": {"note": "Sequences of proteins named here, by UniProt entry; tags and fusion partners are left off.", "UniProt P17096": "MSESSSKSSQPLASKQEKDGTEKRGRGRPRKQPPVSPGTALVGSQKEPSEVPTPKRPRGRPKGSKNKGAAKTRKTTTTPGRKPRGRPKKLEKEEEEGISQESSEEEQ"},
  "source": "paper PMC10878155",
  "molecules": {"B1": {"name": "signal transducer and activator of transcription 1, P42224 1-750 (protein)", "chain": "MSQWYELQQLDSKFLEQVHQLYDDSFPMEIRQYLAQWLEKQDWEHAANDVSFATIRFHDLLSQLDDQYSRFSLENNFLLQHNIRKSKRNLQDNFQEDPIQMSMIIYSCLKEERKILENAQRFNQAQSGNIQSTVMLDKQKELDSKVRNVKDKVMCIEHEIKSLEDLQDEYDFKCKTLQNREHETNGVAKSDQKQEQLLLKKMYLMLDNKRKEVVHKIIELLNVTELTQNALINDELVEWKRRQQSACIGGPPNACLDQLQNWFTIVAESLQQVRQQLKKLEELEQKYTYEHDPITKNKQVLWDRTFSLFQQLIQSSFVVERQPCMPTHPQRPLVLKTGVQFTVKLRLLVKLQELNYNLKVKVLFDKDVNERNTVKGFRKFNILGTHTKVMNMEESTNGSLAAEFRHLQLKEQKNAGTRTNEGPLIVTEELHSLSFETQLCQPGLVIDLETTSLPVVVISNVSQLPSGWASILWYNMLVAEPRNLSFFLTPPCARWAQLSEVLSWQFSSVTKRGLNVDQLNMLGEKLLGPNASPDGLIPWTRFCKENINDKNFPFWLWIESILELIKKHLLPLWNDGCIMGFISKERERALLKDQQPGTFLLRFSESSREGAITFTWVERSQNGGEPDFHAVEPYTKKELSAVTFPDIIRNYKVMAAENIPENPLKYLYPNIDKDHAFGKYYSRPKEAPEPMELDGPKGTGYIKTELISVSEVHPSRLQTTDNLLPMSPEEFDEVSRIVGSVEFDSMMNTV"}},
  "key": {"STMN1": {"target": "STMN1 (UniProt P16949)", "test": "affinity purification with mass spectrometry; STMN1 precipitated with primary antibody on magnetic beads from IP lysis buffer lysate of STMN1-overexpressing NCI-H1299 cells, overnight at 4 °C; SDS-PAGE, LC-MS/MS identification"}, "STMN1, P16949": {"target": "T1, STMN1, P16949", "T1 chain": "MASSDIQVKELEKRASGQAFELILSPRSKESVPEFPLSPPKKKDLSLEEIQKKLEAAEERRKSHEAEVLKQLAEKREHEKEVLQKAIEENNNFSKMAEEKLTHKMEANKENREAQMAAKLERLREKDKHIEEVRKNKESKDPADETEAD", "test": "affinity purification with mass spectrometry; STMN1 precipitated with primary antibody on magnetic beads from IP lysis buffer lysate of STMN1-overexpressing NCI-H1299 cells, overnight at 4 °C; SDS-PAGE, LC-MS/MS identification", "conditions": "remark: other sources report otherwise"}},
  "note": "These are yes or no findings as the source states them, for the method shown. In cells and extracts the contact can be indirect. Here binding means that the protein was enriched with, or labelled near, the bait; the list need not be complete. For some assays here: No binding means not detected with the bait.",
  "data": [
    {"molecule": "high mobility group AT-hook 1 (from UniProt P17096 1-107)", "values": [
      {"measurement": "binding", "setting": "STMN1", "value": "binds"}
    ]},
    {"molecule": "B1", "values": [
      {"measurement": "binding", "setting": "STMN1, P16949", "value": "no binding"}
    ]}
  ]
}
